The target in assay [1] is T1, human DNA polymerase eta (polη), wild type, expressed from pcDNA.3.1.zeo-.POLH (human) (UniProt Q9Y253).
T1 sequence: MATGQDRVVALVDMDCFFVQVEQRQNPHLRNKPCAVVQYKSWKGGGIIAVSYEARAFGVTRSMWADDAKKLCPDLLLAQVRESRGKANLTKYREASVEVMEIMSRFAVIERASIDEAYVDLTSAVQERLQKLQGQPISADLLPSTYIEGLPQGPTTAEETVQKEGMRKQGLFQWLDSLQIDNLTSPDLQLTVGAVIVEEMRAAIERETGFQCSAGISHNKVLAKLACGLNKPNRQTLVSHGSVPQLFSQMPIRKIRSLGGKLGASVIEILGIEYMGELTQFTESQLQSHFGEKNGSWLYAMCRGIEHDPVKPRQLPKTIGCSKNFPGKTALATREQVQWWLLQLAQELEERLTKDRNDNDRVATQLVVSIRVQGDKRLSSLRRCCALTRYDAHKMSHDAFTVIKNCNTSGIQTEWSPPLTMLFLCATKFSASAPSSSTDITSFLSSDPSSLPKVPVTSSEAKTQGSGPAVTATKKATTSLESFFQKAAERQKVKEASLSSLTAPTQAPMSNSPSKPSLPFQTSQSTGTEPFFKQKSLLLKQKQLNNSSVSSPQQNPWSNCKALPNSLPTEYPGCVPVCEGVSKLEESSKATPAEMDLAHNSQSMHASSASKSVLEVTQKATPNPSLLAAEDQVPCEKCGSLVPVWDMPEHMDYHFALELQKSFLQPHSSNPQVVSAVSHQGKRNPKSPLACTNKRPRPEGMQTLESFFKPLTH
Description: co-IP; Supplementary Fig. 9b and 9c; legends not shown, antibody and tags not told; immunoprecipitation from transfected 293FT lysates is the only interaction method given in the methods.

Amino acid sequences for entries named in this document (tags omitted). A change or cut given only in a name is not applied to a line headed by its entry.
UniProt O88907: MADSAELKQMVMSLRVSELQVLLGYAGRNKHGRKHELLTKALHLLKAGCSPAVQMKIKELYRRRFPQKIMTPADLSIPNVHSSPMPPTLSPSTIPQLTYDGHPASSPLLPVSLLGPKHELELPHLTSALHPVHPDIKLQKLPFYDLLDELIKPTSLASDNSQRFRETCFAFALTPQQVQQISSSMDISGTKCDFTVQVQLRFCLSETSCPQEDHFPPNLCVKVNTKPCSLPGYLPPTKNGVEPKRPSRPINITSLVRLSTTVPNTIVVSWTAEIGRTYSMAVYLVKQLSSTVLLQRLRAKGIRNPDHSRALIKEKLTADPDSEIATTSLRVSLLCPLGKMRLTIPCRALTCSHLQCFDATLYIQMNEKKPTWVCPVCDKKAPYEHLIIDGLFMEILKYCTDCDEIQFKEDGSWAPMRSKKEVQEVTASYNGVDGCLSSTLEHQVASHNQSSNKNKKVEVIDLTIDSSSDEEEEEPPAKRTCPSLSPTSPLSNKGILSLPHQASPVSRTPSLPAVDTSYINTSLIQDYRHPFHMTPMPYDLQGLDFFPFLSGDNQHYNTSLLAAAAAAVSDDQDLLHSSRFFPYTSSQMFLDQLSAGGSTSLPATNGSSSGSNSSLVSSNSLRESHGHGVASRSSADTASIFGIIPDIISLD
UniProt Q9NS91: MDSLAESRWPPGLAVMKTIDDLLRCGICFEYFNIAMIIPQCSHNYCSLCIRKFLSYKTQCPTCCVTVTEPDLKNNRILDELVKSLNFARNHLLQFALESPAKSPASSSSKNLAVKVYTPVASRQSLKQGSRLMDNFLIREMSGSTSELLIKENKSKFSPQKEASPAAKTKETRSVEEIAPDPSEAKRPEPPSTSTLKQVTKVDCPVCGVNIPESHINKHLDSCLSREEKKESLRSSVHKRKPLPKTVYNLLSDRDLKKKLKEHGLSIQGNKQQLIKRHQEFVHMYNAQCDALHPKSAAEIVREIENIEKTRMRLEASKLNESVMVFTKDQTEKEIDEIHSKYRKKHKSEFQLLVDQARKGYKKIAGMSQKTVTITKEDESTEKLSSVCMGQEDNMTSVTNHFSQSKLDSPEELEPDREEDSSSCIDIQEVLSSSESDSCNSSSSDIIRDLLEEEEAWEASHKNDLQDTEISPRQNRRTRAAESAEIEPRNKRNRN

For another assay, the target named is Flag-mPIAS1 (UniProt O88907). Description: co-IP; 293FT cells transfected with 2 µg of each plasmid for 24 h; lysis in NETN buffer (50 mM Tris-HCl pH 7.5, 150 mM NaCl, 1 mM EDTA, 0.5% NP40), sonicated; IP with anti-polη, anti-Flag or anti-HA antibody, 3 h at 4 °C, protein A sepharose; final wash 300 mM NaCl; western blot; for polη with Flag-PIAS1 also in mock- or Rad18-depleted (siRNA) cells. In general terms: In western blotting, separated proteins are transferred to a membrane and probed.

For a further assay, the target named is T2, Flag-PIAS4, Q8N2W9.
T2 chain: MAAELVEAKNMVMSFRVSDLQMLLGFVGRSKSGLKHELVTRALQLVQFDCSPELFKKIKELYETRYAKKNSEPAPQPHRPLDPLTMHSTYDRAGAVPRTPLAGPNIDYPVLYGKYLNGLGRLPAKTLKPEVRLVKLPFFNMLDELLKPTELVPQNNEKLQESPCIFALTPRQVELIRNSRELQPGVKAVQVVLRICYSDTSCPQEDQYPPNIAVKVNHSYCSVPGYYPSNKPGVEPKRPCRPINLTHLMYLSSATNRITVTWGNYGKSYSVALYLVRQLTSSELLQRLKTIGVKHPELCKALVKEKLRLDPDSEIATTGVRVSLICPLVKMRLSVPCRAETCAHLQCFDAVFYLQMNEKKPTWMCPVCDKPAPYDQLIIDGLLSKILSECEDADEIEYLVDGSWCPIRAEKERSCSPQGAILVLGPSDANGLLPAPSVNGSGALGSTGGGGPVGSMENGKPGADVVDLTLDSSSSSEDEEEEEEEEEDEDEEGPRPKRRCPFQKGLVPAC
The description is as above. The following applies: remark: other sources report otherwise.

No constants are given. Whether binding was seen depends on the method and setting. In cells and extracts the contact can be indirect. Some results given as binding are weak or reduced against the parent protein; the word gives no strength. For part of these data: Where a sequence is shown, tags or fusion partners need not be part of it.

For “Rad18^1-460 (truncation mutant lacking the C-terminal NLS) (from UniProt Q9NS91 1-460) (domain or fragment)”, in assay [1], the binding entry was “binds”.
In the case of “HA-Rad18, wild type, expressed from pCMV2-HA-RAD18 (from UniProt Q9NS91 1-495)”, the binding result with Flag-mPIAS1 was “binds”.

B1: human DNA polymerase eta (polη), wild type, expressed from pcDNA.3.1.zeo-.POLH, Q9Y253 1-713 (protein)
chain: T1 sequence
In the case of B1, the binding entry with Flag-PIAS4, Q8N2W9 is on record as “binds”.

Source of the values: publication PMC5097173.
